# Assay results from PubChem BioAssay AID504467 (National Center for Advancing Translational Sciences (NCATS), 2011).
# The campaign covered roughly 330,000 compounds. About 7,700 (2.3%) were called active. Inconclusive means that the source gave no clear call. Such entries were picked first, then a sample of the others. Calls follow the shape of the dose curve; as a rule, active = well fitted inhibition curve with a large enough effect; inconclusive = small, poorly fitted or top-dose-only effect, or effect the other way; inactive = flat fitted curve, though single readings scatter. Where the call is inconclusive, the potency comes from a doubtful curve fit.
# Assay: qHTS screen for small molecules that inhibit ELG1-dependent DNA repair in human embryonic kidney (HEK293T) cells expressing luciferase-tagged ELG1; also: nearly all actives have a fitted effect of over 55% in size
# Settings: HEK293T ELG1-luciferase reporter, luminescence, 16 h, DNA damage induced by 5-fluorouridine; series mostly up to 46.1 µM
# Procedure, shortened: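 Overnight (16 hr) co-exposure of 2,000 cells/well to 5-fluorouridine and compound at 37 °C preceded detection. Luciferase was quantified via ONE-Glo luminescence; loss of signal denotes inhibition.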
# Potency is read from the fitted curve at half-maximal effect.
row,SMILES,Potency
1,Cn1c(SCC(=O)NC(C)(C)C)nnc1-c1ccc(C(C)(C)C)cc1,"inconclusive: 15.8 µM [inhibitor, single point]"
2,N/C(=N\OC(=O)c1cc(Br)ccc1Cl)c1ccccn1,"inconclusive: 4.11 µM [activator, full curve]"
3,Cn1nnnc1SCC(=O)c1ccc2c(c1)OCCO2,"inconclusive: 29.1 µM [activator, single point]"
4,CCCCOc1ccc2ccccc2c1C=O,"inconclusive: 20.6 µM [activator, single point]"
5,CCC1=C/C(=C/N(C)c2ccccc2)C(=O)S1,"inconclusive: 16.4 µM [activator, partial curve]"
6,CCOc1ccc(N2CC(C(=O)Nc3ccccc3N3CCCC3)CC2=O)cc1 (stereo not given),inactive
7,COc1cc2c(cc1OC)CN(CC(=O)Nc1ccc3c(c1)OC(F)(F)O3)CC2,"inconclusive: 23.1 µM [inhibitor, partial curve]"
8,C=C(C)Cn1c(=O)c2c(nc3n2CCCN3CCc2ccccc2)n(C)c1=O,active: 16.4 µM
9,CCOC(=O)N1CCN(C(=O)c2ccc(OC)cc2)CC1,inactive
10,Cc1ccccc1NS(=O)(=O)c1ccc(C(=O)NCC(C)(C)N2CCOCC2)cc1,inactive
11,Cc1ccc(N(CCC#N)C(=O)CSc2ccc3c(c2)OCCO3)cc1,"inconclusive: 0.259 µM [activator, single point]"
12,N#Cc1nc(COc2ccc(Cl)cc2)oc1N1CCCCCC1,inactive
13,Cn1cnc([N+](=O)[O-])c1Sc1ccccc1,"inconclusive: 29.1 µM [activator, single point]"
14,S=c1[nH]nc(-c2ccc(Br)cc2)n1-c1ccc2c(c1)OCCO2,inactive
15,CC1=C(C)CC(C(=O)NCC(=O)c2ccccc2)C(C(=O)O)C1 (stereo not given),"inconclusive: 16.4 µM [activator, partial curve]"
16,COc1ccc(-c2cc(-c3ccccc3)nc(SC(C)C(=O)O)c2C#N)cc1 (stereo not given),inactive
17,O=C(C1CCN(S(=O)(=O)c2cccnc2)CC1)N1CCN(C2CCCC2)CC1,"inconclusive: 0.461 µM [inhibitor, full curve, poor fit]"
18,CC1CCC(NC(=O)C2COc3ccccc3O2)CC1 (stereo not given),"inconclusive: 9.2 µM [activator, partial curve, poor fit]"
19,COc1ccc(CCNC(=O)C2CC2)cc1OC,"inconclusive: 3.66 µM [activator, single point]"
20,O=C(c1ccc(Cl)c(S(=O)(=O)Nc2ccc(F)cc2)c1)N1CCN(c2ccccn2)CC1,"inconclusive: 14.6 µM [inhibitor, partial curve, poor fit]"
21,Cc1cc(C(=O)COC(=O)c2cccnc2Cl)c(C)n1CC1CCCO1 (stereo not given),"inconclusive: 2.31 µM [activator, partial curve]"
22,CCOC(=O)C1=C(COC(=O)CCOc2ccc(OC)cc2)NC(=O)NC1C (stereo not given),inactive
23,COC(=O)/C=C1/S/C(=N/NC(=O)c2ccc(OC)cc2)NC1=O,"inconclusive: 18.3 µM [activator, partial curve, poor fit]"

# Some of the entries above in another layout.
row	SMILES	Potency
7	COc1cc2c(cc1OC)CN(CC(=O)Nc1ccc3c(c1)OC(F)(F)O3)CC2	inconclusive: 23.1 µM [inhibitor, partial curve]
12	N#Cc1nc(COc2ccc(Cl)cc2)oc1N1CCCCCC1	inactive
15	CC1=C(C)CC(C(=O)NCC(=O)c2ccccc2)C(C(=O)O)C1 (stereo not given)	inconclusive: 16.4 µM [activator, partial curve]

# (continued)

row,SMILES,Potency
1,CCCn1c(SCC(=O)Nc2ccc(Cl)cc2)n[nH]c1=O,"inconclusive: 29.1 µM [inhibitor, single point]"
2,CN(C)CCCN(C(=O)c1ccc(S(=O)(=O)N2CCCCCC2)cc1)c1nc2cc3c(cc2s1)OCCO3,"inconclusive: 29.1 µM [inhibitor, single point]"
3,CCOc1ccc(-c2cc(CCCC(=O)Nc3cccc(OC)c3)no2)cc1,"inconclusive: 6.51 µM [inhibitor, single point]"
4,S=C1NC2(CCS1)Oc1ccccc1C1CC(c3ccccc3)=NN12 (stereo not given),"inconclusive: 16.4 µM [activator, partial curve]"
5,CNC(=S)N(CCc1c(C)[nH]c2ccc(Cl)cc12)Cc1cccs1,"inconclusive: 29.1 µM [inhibitor, single point]"
6,CC(C)(CNC(=O)c1ccc(S(=O)(=O)Nc2ccc(Cl)cc2)cc1)N1CCOCC1,inactive
7,Oc1[nH]c2ccccc2c1/C=N/N1CCCCC1,"inconclusive: 20.6 µM [activator, partial curve, poor fit]"
8,COc1cccc(NC(=O)c2cnsn2)c1,"inconclusive: 20.6 µM [activator, partial curve]"
9,O=C(CSc1nnc(CNc2ccccc2)o1)N1CCc2ccccc21,inactive
10,CC(C)(C)NC(=O)Cn1nnnc1-c1nonc1N,"inconclusive: 11.6 µM [activator, partial curve]"
11,CCOC(=O)COn1c(-n2nc(C)cc2C)nc2ccccc2c1=O,"inconclusive: 29.1 µM [inhibitor, single point]"
12,Nc1c(C(=O)N/N=C/c2ccc([N+](=O)[O-])cc2)cnn1-c1ccccc1,inactive
13,CCOc1ccc2nc(C(=O)N3CCCC(C)C3)sc2c1 (stereo not given),"inconclusive: 3.66 µM [activator, full curve]"
14,COc1cccc(CNS(=O)(=O)c2c(C)[nH]c(C)c2C(=O)N2CCCCC2)c1,inactive
15,CN1CCCC(OC(=O)c2ccc(C(C)(C)C)cc2)C1 (stereo not given),"inconclusive: 29.1 µM [activator, partial curve, poor fit]"
16,COc1ccc(C2(O)CCN(C(=O)NC3CCCCC3)CC2)cc1,"inconclusive: 25.9 µM [activator, partial curve, poor fit]"
17,COc1cc(OC)cc(C(=O)Nn2cc(C(=O)Nc3ccccc3F)c3ccccc3c2=O)c1,"inconclusive: 23.1 µM [inhibitor, single point]"
18,COc1ccc(C2CC(c3ccc4ccccc4c3OC(C)=O)=NN2C(C)=O)cc1 (stereo not given),"inconclusive: 16.4 µM [activator, partial curve]"
19,CC(C)c1ccc(OCC(=O)NC2CC(C)(C)NC(C)(C)C2)c(Br)c1,inactive
20,O=C(NNc1cccc(Cl)n1)Nc1ccc(Cl)cc1,inactive
21,O=C(Nc1ccc(Cl)cc1F)c1cccc2ccccc12,"inconclusive: 16.4 µM [activator, single point]"
22,COc1cc(C(=O)NCCOc2cc(C)ccc2C(C)C)cc(OC)c1OC,active: 4.61 µM
